Consider one molecule from article doi:10.1101/458760.

Protein sequences, listed by entry. Tags and fused reporters are not part of them. Residues count along the entry.
UniProt P11835, residues 24-771: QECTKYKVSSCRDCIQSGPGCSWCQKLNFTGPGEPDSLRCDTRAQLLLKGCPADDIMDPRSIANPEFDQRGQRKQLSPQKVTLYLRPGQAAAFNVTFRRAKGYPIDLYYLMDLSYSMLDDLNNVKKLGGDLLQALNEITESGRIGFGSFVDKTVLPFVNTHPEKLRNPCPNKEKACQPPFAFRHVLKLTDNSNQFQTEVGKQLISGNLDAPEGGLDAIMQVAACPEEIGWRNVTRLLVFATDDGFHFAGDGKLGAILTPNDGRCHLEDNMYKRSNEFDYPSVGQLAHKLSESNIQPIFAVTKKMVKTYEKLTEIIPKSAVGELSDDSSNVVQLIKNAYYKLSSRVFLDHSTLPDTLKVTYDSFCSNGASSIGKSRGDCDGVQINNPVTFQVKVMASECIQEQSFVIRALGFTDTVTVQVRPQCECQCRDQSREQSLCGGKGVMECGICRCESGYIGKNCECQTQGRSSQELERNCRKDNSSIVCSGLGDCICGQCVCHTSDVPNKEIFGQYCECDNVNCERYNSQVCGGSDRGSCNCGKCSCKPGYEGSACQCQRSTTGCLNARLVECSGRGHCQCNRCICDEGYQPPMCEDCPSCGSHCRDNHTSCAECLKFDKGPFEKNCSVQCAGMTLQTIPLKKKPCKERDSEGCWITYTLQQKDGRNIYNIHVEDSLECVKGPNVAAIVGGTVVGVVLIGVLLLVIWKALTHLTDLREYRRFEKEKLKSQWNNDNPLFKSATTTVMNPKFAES

These are yes or no findings as the source states them, for the method shown. In cells and extracts the contact can be indirect. Some binding calls cover weakened binding; strength is not graded here.

The assay concerns the target CD18 (mouse (endogenous in neutrophils)) (UniProt P11835). Briefly: FRET or BRET. In general terms: In BRET a luciferase serves as donor, and the signal depends on an acceptor being close.

B1: Ly6G (protein, UniProt P35461 27-105)
chain: LECYNCIGVPPETSCNTTTCPFSDGFCVALEIEVIVDSHRSKVKSNLCLPICPTTLDNTEITGNAVNVKTYCCKEDLCN
With B1, the binding result is recorded as “binds”.
